Our source for the log2 fold change values is the supplement of paper PMC10849652.

Chains of the proteins cited; added tags and fusions are not shown. Lines headed by an entry give the natural chain unless they say otherwise; changes in a name come on top.
UniProt Q9H8H3: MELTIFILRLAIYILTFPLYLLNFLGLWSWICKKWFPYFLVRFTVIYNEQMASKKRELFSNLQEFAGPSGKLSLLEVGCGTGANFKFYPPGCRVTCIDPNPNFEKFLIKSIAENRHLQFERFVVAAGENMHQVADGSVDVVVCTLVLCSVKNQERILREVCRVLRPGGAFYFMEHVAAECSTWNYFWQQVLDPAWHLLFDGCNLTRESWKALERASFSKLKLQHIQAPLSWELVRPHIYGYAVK
UniProt P33992: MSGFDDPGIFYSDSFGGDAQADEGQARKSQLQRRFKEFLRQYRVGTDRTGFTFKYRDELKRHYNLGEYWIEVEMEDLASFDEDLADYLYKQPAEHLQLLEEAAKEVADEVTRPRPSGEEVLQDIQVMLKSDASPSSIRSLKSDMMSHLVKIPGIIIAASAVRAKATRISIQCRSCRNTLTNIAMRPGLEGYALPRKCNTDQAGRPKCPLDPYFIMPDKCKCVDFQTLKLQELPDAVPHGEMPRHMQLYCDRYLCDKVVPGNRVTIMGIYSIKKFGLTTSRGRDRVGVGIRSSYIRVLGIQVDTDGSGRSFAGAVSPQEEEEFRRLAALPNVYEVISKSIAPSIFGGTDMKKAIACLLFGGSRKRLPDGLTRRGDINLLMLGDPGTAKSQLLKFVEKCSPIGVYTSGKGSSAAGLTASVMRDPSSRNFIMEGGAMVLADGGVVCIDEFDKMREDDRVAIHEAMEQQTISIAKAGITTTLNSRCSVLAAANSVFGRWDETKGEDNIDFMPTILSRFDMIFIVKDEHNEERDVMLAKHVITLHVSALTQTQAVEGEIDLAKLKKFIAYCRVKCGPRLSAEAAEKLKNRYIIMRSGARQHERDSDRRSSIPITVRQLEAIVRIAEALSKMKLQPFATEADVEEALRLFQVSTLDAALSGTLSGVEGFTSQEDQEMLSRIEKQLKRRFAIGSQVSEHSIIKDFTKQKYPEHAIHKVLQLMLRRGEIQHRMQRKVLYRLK
UniProt Q71F56: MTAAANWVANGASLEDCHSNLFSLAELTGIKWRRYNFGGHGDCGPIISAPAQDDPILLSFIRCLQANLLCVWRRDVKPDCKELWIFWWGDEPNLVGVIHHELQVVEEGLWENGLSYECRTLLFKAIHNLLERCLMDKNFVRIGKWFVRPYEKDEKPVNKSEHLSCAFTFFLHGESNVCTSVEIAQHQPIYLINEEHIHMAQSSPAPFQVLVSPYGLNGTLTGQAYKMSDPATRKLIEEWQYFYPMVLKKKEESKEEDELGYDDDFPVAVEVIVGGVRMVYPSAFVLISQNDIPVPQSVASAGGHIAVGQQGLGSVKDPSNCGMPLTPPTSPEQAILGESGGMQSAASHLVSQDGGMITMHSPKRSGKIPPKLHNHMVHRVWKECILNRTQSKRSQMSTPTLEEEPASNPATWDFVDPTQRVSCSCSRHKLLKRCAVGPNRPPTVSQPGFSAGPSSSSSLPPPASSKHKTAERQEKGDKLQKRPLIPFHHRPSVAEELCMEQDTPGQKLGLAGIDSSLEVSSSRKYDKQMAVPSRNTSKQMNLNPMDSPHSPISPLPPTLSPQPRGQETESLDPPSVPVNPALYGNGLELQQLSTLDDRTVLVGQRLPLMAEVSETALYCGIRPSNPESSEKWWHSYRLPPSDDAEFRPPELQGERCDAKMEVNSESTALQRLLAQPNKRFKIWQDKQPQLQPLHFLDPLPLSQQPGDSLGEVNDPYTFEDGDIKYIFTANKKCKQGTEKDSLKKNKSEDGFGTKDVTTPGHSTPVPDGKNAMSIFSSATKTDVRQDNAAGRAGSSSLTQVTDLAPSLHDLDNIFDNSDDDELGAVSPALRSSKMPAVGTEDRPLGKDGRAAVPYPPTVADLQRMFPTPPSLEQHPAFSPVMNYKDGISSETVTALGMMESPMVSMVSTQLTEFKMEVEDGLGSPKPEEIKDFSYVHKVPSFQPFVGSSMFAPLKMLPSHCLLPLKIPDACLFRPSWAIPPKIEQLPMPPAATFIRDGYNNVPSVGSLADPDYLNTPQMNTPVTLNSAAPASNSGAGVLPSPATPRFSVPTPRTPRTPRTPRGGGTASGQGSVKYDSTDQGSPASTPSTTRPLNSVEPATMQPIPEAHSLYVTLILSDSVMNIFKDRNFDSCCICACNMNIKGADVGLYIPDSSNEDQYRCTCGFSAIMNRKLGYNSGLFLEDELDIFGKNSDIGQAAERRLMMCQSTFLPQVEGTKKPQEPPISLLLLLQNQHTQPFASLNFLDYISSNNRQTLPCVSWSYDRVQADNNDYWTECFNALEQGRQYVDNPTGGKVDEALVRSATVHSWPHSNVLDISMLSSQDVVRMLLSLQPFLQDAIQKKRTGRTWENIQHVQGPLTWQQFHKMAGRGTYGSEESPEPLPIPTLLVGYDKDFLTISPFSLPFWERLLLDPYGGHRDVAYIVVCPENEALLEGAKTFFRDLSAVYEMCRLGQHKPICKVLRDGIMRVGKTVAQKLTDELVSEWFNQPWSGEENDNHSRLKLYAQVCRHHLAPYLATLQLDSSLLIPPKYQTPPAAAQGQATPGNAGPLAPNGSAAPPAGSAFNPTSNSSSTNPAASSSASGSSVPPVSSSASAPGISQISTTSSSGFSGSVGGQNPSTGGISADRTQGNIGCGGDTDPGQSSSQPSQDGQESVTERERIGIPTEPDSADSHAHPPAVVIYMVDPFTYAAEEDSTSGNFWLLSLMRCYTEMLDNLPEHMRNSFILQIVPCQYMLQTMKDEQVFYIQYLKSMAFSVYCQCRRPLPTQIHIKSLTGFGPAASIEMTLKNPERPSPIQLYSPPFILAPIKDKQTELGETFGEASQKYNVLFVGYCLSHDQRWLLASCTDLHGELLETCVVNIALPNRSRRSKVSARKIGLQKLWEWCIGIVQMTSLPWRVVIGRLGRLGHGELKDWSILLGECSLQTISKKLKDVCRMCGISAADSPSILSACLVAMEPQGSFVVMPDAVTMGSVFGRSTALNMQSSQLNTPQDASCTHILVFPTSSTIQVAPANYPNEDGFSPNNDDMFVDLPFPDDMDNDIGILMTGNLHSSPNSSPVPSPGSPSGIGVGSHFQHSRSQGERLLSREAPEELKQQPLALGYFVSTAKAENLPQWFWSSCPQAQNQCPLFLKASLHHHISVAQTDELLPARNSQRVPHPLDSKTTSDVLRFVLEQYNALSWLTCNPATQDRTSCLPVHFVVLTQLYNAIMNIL
UniProt Q86W50: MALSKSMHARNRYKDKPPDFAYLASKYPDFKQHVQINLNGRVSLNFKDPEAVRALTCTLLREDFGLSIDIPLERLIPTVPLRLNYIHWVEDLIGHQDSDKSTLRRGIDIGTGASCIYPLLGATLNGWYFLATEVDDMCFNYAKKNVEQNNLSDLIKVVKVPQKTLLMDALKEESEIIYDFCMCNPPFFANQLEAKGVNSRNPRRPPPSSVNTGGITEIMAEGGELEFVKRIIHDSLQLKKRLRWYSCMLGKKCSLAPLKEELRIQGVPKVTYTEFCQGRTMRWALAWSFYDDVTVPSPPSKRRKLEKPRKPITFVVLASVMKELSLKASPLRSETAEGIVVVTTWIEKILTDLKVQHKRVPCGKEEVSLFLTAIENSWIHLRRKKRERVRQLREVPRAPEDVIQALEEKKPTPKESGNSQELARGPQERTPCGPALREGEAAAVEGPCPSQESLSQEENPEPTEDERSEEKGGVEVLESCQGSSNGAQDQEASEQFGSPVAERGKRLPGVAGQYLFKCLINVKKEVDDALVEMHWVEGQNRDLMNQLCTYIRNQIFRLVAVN
UniProt O60318: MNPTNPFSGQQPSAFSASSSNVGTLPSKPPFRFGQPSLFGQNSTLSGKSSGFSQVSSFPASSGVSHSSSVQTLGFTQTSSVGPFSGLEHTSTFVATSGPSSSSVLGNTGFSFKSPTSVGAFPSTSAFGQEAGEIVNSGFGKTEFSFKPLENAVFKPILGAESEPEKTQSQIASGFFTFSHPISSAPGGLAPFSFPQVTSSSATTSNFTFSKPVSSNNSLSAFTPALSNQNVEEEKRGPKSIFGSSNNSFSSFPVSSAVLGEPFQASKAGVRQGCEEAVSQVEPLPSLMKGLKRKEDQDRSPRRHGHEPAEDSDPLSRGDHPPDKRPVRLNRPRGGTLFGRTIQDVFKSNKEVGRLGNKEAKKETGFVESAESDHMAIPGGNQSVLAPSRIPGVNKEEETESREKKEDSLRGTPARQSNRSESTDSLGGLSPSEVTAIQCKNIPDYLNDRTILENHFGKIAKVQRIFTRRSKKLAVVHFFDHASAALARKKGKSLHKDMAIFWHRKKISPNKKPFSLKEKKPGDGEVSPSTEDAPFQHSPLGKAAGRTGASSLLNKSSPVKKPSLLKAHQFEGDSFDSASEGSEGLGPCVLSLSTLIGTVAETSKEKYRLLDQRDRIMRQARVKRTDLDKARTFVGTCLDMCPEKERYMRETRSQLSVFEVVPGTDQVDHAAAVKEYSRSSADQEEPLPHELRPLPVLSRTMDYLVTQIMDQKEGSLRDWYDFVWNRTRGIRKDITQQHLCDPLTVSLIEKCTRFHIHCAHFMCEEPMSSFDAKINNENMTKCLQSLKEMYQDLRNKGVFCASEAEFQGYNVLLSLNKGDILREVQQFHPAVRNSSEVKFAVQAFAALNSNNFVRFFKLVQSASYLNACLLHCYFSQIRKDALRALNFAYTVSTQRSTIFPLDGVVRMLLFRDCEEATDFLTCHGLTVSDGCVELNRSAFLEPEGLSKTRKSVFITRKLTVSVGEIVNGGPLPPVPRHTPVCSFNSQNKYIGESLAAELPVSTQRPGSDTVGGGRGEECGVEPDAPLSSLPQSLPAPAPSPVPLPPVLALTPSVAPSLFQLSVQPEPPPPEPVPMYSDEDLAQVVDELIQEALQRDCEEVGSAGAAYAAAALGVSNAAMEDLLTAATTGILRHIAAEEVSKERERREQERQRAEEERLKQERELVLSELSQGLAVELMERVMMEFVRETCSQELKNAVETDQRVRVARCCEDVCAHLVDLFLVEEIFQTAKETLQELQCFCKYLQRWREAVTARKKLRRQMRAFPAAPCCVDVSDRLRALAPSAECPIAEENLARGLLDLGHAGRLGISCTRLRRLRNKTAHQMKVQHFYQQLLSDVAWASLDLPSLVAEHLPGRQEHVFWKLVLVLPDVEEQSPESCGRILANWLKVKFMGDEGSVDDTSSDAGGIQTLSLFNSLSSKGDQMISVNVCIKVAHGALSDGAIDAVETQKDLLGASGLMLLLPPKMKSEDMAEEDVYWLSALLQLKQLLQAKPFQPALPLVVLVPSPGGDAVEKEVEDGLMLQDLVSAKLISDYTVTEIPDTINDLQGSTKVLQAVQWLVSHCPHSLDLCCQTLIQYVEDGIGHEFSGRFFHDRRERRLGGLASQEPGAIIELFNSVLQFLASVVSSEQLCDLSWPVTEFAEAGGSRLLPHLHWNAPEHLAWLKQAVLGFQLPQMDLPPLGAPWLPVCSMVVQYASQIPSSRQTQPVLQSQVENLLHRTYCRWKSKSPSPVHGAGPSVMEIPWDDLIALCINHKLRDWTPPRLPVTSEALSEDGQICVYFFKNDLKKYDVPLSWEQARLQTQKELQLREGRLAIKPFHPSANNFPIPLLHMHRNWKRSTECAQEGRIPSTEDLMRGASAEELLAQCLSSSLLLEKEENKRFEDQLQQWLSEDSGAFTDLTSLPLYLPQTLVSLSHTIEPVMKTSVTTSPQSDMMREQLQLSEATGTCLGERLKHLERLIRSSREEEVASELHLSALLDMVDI
UniProt Q9P086: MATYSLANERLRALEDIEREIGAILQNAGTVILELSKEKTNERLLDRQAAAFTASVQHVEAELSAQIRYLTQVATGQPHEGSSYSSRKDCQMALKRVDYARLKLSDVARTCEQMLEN
UniProt O00255, whole entry, looked up: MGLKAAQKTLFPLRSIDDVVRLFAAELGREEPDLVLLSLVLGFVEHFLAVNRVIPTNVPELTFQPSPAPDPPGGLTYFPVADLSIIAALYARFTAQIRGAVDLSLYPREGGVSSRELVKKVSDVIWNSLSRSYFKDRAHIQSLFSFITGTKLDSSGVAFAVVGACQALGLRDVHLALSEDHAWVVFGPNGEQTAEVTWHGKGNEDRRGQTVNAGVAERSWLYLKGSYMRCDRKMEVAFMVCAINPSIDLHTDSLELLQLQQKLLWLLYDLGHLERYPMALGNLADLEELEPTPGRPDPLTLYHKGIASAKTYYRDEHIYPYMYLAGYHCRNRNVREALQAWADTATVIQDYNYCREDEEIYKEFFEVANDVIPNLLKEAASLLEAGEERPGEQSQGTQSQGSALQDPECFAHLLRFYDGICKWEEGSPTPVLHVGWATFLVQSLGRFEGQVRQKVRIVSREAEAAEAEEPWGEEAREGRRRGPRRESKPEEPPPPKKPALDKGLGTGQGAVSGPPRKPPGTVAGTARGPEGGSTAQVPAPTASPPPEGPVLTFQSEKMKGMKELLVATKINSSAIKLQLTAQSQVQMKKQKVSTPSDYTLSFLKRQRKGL

The other results are listed elsewhere or left out.

Compound in this assay: C#Cc1cccc(Nc2ncnc3cc(OCCOC)c(OCCOC)cc23)c1 [erlotinib]
The assay can be described thus: log2 fold change, soluble protein after heating vs DMSO (PISA); higher = thermal stabilisation; K562 lysate, 10 uM; active = over 0.2 and 3.5 SD of the protein, either way, in both replicates (recomputed). The method in brief:
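Dounce homogenisation of K562 pellets in PBS pH 7.4 with 1 mM MgCl2 produced a crude extract, used at 1 mg/mL protein. Exposure to 10 μM compound lasted 30 min, and aliquots were then heated for 3 min across 48°C-58°C, pooled and brought to 0.5% NP-40 at 4°C. The supernatant after 21,000xg for 90 min was quantified by TMTpro 16plex LC-MS/MS with channel sums equalised. Duplicate values are given as log-two fold change in thermal stability relative to solvent controls.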
On to METTL7A (UniProt Q9H8H3), for which the log2 fold change was inactive: 0.029.

On to MCM10 (UniProt Q7L590), for which the log2 fold change was inactive: 0.036.

MDM2 isoform 11 (UniProt Q00987): the log2 fold change was inactive: 0.108.

Regarding MCFD2 (UniProt Q8NI22), the log2 fold change is inactive: 0.251.

As for MCM5 (UniProt P33992), the log2 fold change was inactive: -0.016.

In the case of MBOAT1 (UniProt Q6ZNC8), the log2 fold change was inactive: 0.436.

For MED13L (UniProt Q71F56), the log2 fold change was inactive: 0.048.

Regarding MCOLN1 (UniProt Q9GZU1), the log2 fold change was inactive: 0.057.

With MBLAC1 (UniProt A4D2B0), the log2 fold change is inactive: -0.137.

Consider METTL14 (UniProt Q9HCE5), for which the log2 fold change is inactive: 0.006.

MELK (UniProt Q14680): the log2 fold change is inactive: 0.056.

MED12 isoform 2 (UniProt Q93074): the log2 fold change was inactive: 0.007.

Consider METTL16 (UniProt Q86W50), for which the log2 fold change was inactive: -0.023.

In the case of MFSD8 (UniProt Q8NHS3), the log2 fold change is inactive: -0.079.

In the case of METTL5 (UniProt Q9NRN9), the log2 fold change was inactive: -0.023.

As to MED20 (UniProt Q9H944), the log2 fold change is inactive: -0.008.

For the target MCM3AP (UniProt O60318), the log2 fold change is inactive: 0.119.

In the case of MED14 (UniProt O60244), the log2 fold change was inactive: -0.012.

Consider MEF2A isoform 2 (UniProt Q02078), for which the log2 fold change was inactive: -0.079.

As to MED22 isoform 2 (UniProt Q15528), the log2 fold change is inactive: 0.016.

Turning to MFHAS1 (UniProt Q9Y4C4), the log2 fold change is inactive: -0.111.

With MFSD12 isoform 3 (UniProt Q6NUT3), the log2 fold change is inactive: 0.029.

On to MAVS (UniProt Q7Z434), for which the log2 fold change is inactive: 0.024.

For the target MED26 (UniProt O95402), the log2 fold change is inactive: -0.041.

As to MDM1 (UniProt Q8TC05), the log2 fold change is inactive: -0.018.

Regarding MEGF9 (UniProt Q9H1U4), the log2 fold change is inactive: 0.142.

As to MELTF (UniProt P08582), the log2 fold change is inactive: -0.083.

MED11 (UniProt Q9P086): the log2 fold change is inactive: 0.118.

In the case of MEIS2 (UniProt O14770), the log2 fold change was inactive: 0.023.

Turning to MCMBP isoform 2 (UniProt Q9BTE3), the log2 fold change was inactive: 0.084.

As for MFAP3 (UniProt P55082), the log2 fold change was inactive: -0.063.

As for MBNL2 (UniProt Q5VZF2), the log2 fold change is inactive: 0.097.

For the target MEN1 (UniProt O00255), the log2 fold change is inactive: 0.065.

For the target MEPCE (UniProt Q7L2J0), the log2 fold change was inactive: 0.

With MED17 (UniProt Q9NVC6), the log2 fold change is inactive: -0.017.

In the case of MEF2D (UniProt Q14814), the log2 fold change was inactive: -0.041.

Consider MFSD1 isoform 6 (UniProt Q9H3U5), for which the log2 fold change was inactive: -0.094.

MBOAT2 (UniProt Q6ZWT7): the log2 fold change was inactive: -0.003.
